These results are taken from patent US7282344B2, “Cation conducting GABAA receptors and their use” (Neurosearch A/S, priority 2001, dated 2007).

This series concerns CHO-K1 cells expressing GABAA receptors. The series is described as follows: Whole cell patch clamp, reversal potentials of GABA-activated currents. The format is cell-based, human. (In general: In patch-clamp work, channel activity is measured electrically.)

Take “α2 β3 γ2: wild-type human GABAA receptor of α2, β3 and γ2 subunits expressed in CHO-K1 cells”: the “Vrev Na-R” value (extracellular solution 140 mM NaCl, GABA-activated currents) was 1.3 ± 0.7 mV ± SEM. For the same substance, where the note is “low chloride extracellular solution (Gluconate-R)”, the “Vrev Gluconate-R” value was 33.5 ± 2.4 mV ± SEM. Besides, the “Vrev NMDG-R” value (low sodium extracellular solution (NMDG-R)) is 0.8 ± 2.0 mV ± SEM. Moreover, the “Conductance indicated by shift in reversal potential” value (shift from Na-R to Gluconate-R or NMDG-R) is “chloride conductance”.
